Measurements taken from publication doi:10.1101/2025.09.09.675133.

T1: V5-SYS1 (human) (UniProt Q8N2H4)
T1 sequence: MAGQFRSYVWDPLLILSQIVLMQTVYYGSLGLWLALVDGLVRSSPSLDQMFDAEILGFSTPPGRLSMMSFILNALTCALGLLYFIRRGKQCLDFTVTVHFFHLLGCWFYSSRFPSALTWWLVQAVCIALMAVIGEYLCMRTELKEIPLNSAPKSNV

T2: V5-JTB (human) (UniProt O76095)
T2 sequence: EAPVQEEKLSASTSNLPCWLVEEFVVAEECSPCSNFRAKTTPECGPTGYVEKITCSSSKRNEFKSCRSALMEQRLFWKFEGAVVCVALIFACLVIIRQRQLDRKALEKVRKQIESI


What was measured:
V5-SYS1 (human) = molecular target: T1, V5-SYS1 (human); test: affinity purification with mass spectrometry
V5-JTB (human) = molecular target: T2, V5-JTB (human); test: affinity purification with mass spectrometry

binding (V5-SYS1 (human)) | binding (V5-JTB (human)) | Binder
binds |  | JTB (protein, UniProt O76095 31-146) EAPVQEEKLSASTSNLPCWLVEEFVVAEECSPCSNFRAKTTPECGPTGYVEKITCSSSKRNEFKSCRSALMEQRLFWKFEGAVVCVALIFACLVIIRQRQLDRKALEKVRKQIESI
 | binds | ARFRP1 (protein, UniProt Q13795 1-201) MYTLLSGLYKYMFQKDEYCILILGLDNAGKTTFLEQSKTRFNKNYKGMSLSKITTTVGLNIGTVDVGKARLMFWDLGGQEELQSLWDKYYAECHGVIYVIDSTDEERLAESKQAFEKVVTSEALCGVPVLVLANKQDVETCLSIPDIKTAFSDCTSKIGRRDCLTQACSALTGKGVREGIEWMVKCVVRNVHRPPRQRDIT
no binding | no binding | ARL1 (protein, UniProt P40616 1-181) MGGFFSSIFSSLFGTREMRILILGLDGAGKTTILYRLQVGEVVTTIPTIGFNVETVTYKNLKFQVWDLGGQTSIRPYWRCYYSNTDAVIYVVDSCDRDRIGISKSELVAMLEEEELRKAILVVFANKQDMEQAMTSSEMANSLGLPALKDRKWQIFKTSATKGTGLDEAMEWLVETLKSRQ

These are yes or no findings as the source states them, for the method shown. Binding seen in cells or lysates may run through a third protein. Here binding means that the protein was enriched with, or labelled near, the bait; the list need not be complete. No binding means not detected with the bait. Where a sequence is shown, tags or fusion partners need not be part of it.
